Measurements from paper PMC10748377.
Results are given in words; binding and its absence hold for the method and conditions named. For part of these data: Binding can be weak; no strength is given.

What was measured:
[1] = molecular target: T1, MtPT1 (Medicago truncatula) (UniProt O22301); experiment: two-hybrid; split-ubiquitin membrane yeast two-hybrid (Dualsystems Biotech); MtPT bait in pAMBV4, MtNLA prey in pDL-Nx / pDL-xN; yeast strain DSY1; growth on synthetic medium lacking leucine, tryptophan and histidine
T1 sequence: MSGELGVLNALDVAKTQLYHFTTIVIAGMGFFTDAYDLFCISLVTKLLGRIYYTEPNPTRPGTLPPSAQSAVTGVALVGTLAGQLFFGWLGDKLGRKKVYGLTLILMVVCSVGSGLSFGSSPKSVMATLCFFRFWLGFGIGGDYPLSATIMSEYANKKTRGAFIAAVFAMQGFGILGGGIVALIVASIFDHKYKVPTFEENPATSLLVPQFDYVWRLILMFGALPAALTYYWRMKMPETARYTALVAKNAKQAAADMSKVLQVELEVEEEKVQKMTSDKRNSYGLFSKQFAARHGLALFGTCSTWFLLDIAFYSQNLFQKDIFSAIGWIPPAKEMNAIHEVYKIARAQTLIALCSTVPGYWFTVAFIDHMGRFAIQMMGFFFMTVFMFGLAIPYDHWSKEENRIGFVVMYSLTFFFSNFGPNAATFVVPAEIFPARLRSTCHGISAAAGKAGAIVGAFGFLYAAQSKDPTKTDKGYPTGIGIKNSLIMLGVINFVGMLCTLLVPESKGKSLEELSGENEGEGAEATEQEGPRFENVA

[2] = molecular target: T2, MtPT4 (Medicago truncatula) (UniProt Q8GSG4); experiment: as above
T2 sequence: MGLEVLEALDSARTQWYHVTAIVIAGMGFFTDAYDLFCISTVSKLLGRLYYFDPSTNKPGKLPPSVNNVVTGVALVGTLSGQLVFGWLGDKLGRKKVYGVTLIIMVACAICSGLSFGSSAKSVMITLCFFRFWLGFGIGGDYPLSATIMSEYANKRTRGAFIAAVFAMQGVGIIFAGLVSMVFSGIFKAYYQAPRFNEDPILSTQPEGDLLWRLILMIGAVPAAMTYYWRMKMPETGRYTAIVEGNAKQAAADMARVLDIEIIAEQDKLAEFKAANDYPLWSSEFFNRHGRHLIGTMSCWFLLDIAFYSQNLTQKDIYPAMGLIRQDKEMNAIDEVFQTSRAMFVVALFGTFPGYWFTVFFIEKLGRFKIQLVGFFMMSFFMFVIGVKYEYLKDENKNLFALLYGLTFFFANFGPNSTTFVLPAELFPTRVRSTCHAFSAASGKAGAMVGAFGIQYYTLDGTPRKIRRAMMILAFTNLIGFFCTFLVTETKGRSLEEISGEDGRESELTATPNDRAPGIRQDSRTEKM

Substance | binding [1] | binding [2]
MtNLA3.2 (Medicago truncatula) | no binding | no binding
MtNLA3.1 (full-length) (Medicago truncatula) | no binding | no binding
MtNLA3.3 (Medicago truncatula) | binds | no binding

Other lines, results leading:

binding [1] | binding [2] | Substance
binds | no binding | MtNLA1/MtNLA2 (Medicago truncatula)
no binding | – | SPX domain of MtNLA3.1 (1-210 a.a.) (Medicago truncatula) (domain or fragment)
